{
  "source": "patent US6531156B1",
  "about": "“Aqueous solven encapsulation method, apparatus and microcapsules” (Temple University, priority 1994, dated 2003)",
  "note": "Some entries share one result that the patent states for a list of compounds. Some ranges recur; such a range may be that of the whole group of compounds.",
  "data": [
    {"system": "bovine rotavirus strain WC3", "conditions": "WC3 stock diluted 1:50 in 0.05N sodium salt of polymer or 0.05M amine salt, pH 7.0, versus 0.9% NaCl", "values": [
      {"compound": "N=C(N)NCCC[C@H](N)C(=O)O", "note": "[arginine]", "reduction in rotavirus infectivity": "2.5-10 fold"},
      {"compound": "CCCCCCCCCCCCCCCCCCN", "note": "[octadecylamine]", "reduction in rotavirus infectivity": "2.5-10 fold"},
      {"compound": "heparin [reference compound]", "reduction in rotavirus infectivity": "2.5-10 fold"}
    ]}
  ]
}
